Assay results taken from patent US20180267027A1, “FLUORESCENT BIOSENSOR FOR […] ASSAY” (The Regents of the University of California, priority 2015, published 2018).
Some entries share one result that the patent states for a list of compounds.

B1: Aeh1-4: SAH biosensor, SEQ ID NO: 44 (nucleic acid)
chain: CGCCCCGAGGAGCGCTGCAACAGGTTGTTGAGTAGAGTGTGAGCTCCGTAACTAGTTACATCGCAAGATGTAACTGAATGAAATGGTGAAGGACGGGTCCACCTGCCAGGCTCGGGGATGGCGCCCCATCGTTCCAACGGCGCTCAGCGAAA
B2: Mpe1-5: SAH biosensor, SEQ ID NO: 39 (nucleic acid)
chain: ACTTTCGAGGAGCGTTGCAACTCCCTTGTTGAGTAGAGTGTGAGCTCCGTAACTAGTTACATCGCAAGATGTAACTGAATGAAATGGTGAAGGACGGGTCCAGGGAGCCAGGCTCGAAAGTCATCCCCCGATGCAACGGCGCTCACCCGCA
B3: Nmo1-4: SAH biosensor, SEQ ID NO: 65 (Table 2 prints 64) (nucleic acid)
chain: CTCGCCGAGGAGCGCTGCAACAGGTTGTTGAGTAGAGTGTGAGCTCCGTAACTAGTTACATCGCAAGATGTAACTGAATGAAATGGTGAAGGACGGGTCCACCTGCCAGGCTCGGCGATTATCGGGACCTTTAAACCAACGGCGCTCGGTTCAG

Test: Phylogenetic screen of SAH riboswitch biosensor candidates for fluorescence activation
Type: biochemical
Details: 37° C., 10 mM MgCl2, addition of SAH

Molecule	fluorescence activation in the screen
B1	more than 2 fold
B2	more than 2 fold
B3	more than 2 fold
